Assay results: PubChem BioAssay AID493014 (National Center for Advancing Translational Sciences (NCATS), 2011)
Where “and” joins values, the source holds several entries; their conditions need not be identical. Identical values can stand only once. The list shows a part of the results. Shown are side measurements of this screen, not its main read-out; they come without a call. Most of these compounds were active or inconclusive in the main read-out, so they are no random draw. The note in brackets gives the kind of curve behind each potency; many fits are weak.

Assay: qHTS Assay to Find Inhibitors of Chronic Active B-Cell Receptor Signaling
Settings: ABC-DLBCL IkBa-CBG/CBR reporter, luminescence ratio (green luciferase fused to IkBa over red control in TMD8 lymphoma cells), 4 h
Procedure, shortened: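 TMD8 human ABC-DLBCL cells with doxycycline-inducible IκBα–green luciferase fusion and unfused red luciferase, in 0.5% FBS medium; compounds up to 46 uM, 4 h at 37C. Green/red luminescence ratio, filter-overlap corrected, fitted to concentration-response curves.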

[1] = measured here: CBR red luminescence, cell number
[2] = measured here: IkBa-CBG green luminescence

Compound	AC50 [1]	AC50 [2]
O=C(c1cc(-c2ccc3c(c2)OCO3)on1)N1CCOCC1	0.731 µM [falling, full curve, poor fit]	–
O=C(O)CN1C(=O)/C(=C/c2ccc(SCc3ccccc3)o2)SC1=S	35.5 µM [falling, single point]	5.62 µM [falling, single point]
CC(C)S(=O)(=O)c1csc(C(=O)Nc2ccc(F)cc2)c1N	8.91 µM [falling, partial curve]	–
Clc1ccc(-c2cc3ccccc3[nH]2)cc1	1 µM [rising, partial curve, poor fit]	–
CN(C)CCCN(C(=O)c1cccc(N2C(=O)CCC2=O)c1)c1nc2cc3c(cc2s1)OCO3	35.5 µM [falling, single point]	–
COc1cccc(C(=O)NCCOc2cc(C)cc(C)c2)c1	18.4 µM [falling, partial curve, poor fit]	29.1 µM [rising, partial curve, poor fit]
Cn1c(C(=O)N2CCC(C(N)=O)CC2)cc2c(=O)n(C)c3ccccc3c21	0.92 µM [rising, full curve, poor fit]	–
COCCN(C(=O)c1ccc(C)o1)c1c(N)n(CC(C)C)c(=O)[nH]c1=O	16.4 µM [rising, partial curve, poor fit]	–
Cc1nc2scc(C)n2c(=O)c1S(=O)(=O)Nc1ccc(OC(F)(F)F)cc1	7.94 µM [falling, partial curve]	–
COc1ccccc1C(=O)Oc1ccc(C(C)(C)C)cc1	20.6 µM [rising, single point]	–
c1ccc(-c2n[nH]c(-c3ccccn3)n2)nc1	6.51 µM [rising, single point]	–
CC(=O)c1cc(NC(=O)c2cccc(C(F)(F)F)c2)c(=O)oc1C	15.8 µM [falling, partial curve, poor fit]	–
Cc1ccc(C(=O)Nc2nc3nc(-c4ccccc4)cc(=O)n3[nH]2)cc1	29.1 µM [rising, single point]	–
O=C1c2ccccc2C(=O)N1CCCCSc1nnc(-c2ccc(OC(F)F)cc2)o1	2.06 µM [falling, full curve]	–
CN(Cc1ccccc1)C(=O)COC(=O)c1cc2ccccc2oc1=O	0.326 µM [rising, full curve, poor fit]	–
CCN(CC)C(=O)OCc1c(-c2cccc(OC)c2)ncc2ccccc12	32.6 µM [falling, single point]	–
CC(NC(=O)Nc1ccc([N+](=O)[O-])cc1)C(c1cccs1)N1CCCC1 (centres undefined)	6.51 µM [rising, single point]	–
CCCN1CCC2(CC1)C(C#N)=C(N)Oc1c2sc2nc(C)cc(C)c12	35.5 µM [falling, single point]	–
O=C(N/N=C/c1ccco1)c1cccc(NC(=O)c2ccccc2Cl)c1	28.2 µM [falling, single point]	–
O=C(O)/C=C/c1cccc2c1OCCO2	22.4 µM [falling, single point]	–
Cc1nc(SCC(=O)c2ccccc2)n[nH]1	35.5 µM [falling, single point]	–

Compound	AC50 [1]	AC50 [2]
Cc1cccc(-c2noc(CCCC(=O)NC3CCCC3)n2)c1	35.5 µM [rising, partial curve, poor fit]	3.16 µM [rising, partial curve, poor fit]
O=C(O)C(Nc1nc(C(F)(F)F)nc2ccccc12)c1ccccc1 (centres undefined)	17.8 µM [falling, single point]	–
Cc1[nH]c(=O)[nH]c(=O)c1S(=O)(=O)Nc1cccc([N+](=O)[O-])c1C	0.562 µM [rising, full curve, poor fit]	–
Cn1nc(CC(=O)Nc2ncc(Br)s2)c2ccccc2c1=O	0.291 µM [rising, full curve, poor fit]	–
Cc1nc2ccccc2c2oc(C(=O)NCC3COc4ccccc4O3)cc12 (centres undefined)	20.6 µM [falling, partial curve]	7.31 µM [rising, partial curve, poor fit]
CN(c1ccccc1)S(=O)(=O)c1ccc(C(=O)NCc2ccccc2F)cc1	29.1 µM [rising, single point]	–
COC(=O)c1c(NC(=O)CCC(=O)O)sc2c1CCCCC2	18.4 µM [falling, single point]	–
CCCN=Cc1c(CCC)[nH]n(-c2nc3ccccc3s2)c1=O	12.6 µM [falling, single point]	–
COc1cc(C(=O)Nc2nc(-c3ccc(F)cc3)cs2)ccc1OCC(=O)N1CCOCC1	23.1 µM [falling, single point]	–
Nn1c(SCc2ccc(C(=O)O)cc2)nnc1-c1ccc(Cl)cc1Cl	7.94 µM [falling, partial curve, poor fit]	–
COC(=O)c1cc(NC(=O)N2c3ccccc3Sc3ccccc32)cc(C(=O)OC)c1	3.16 µM [rising, single point]	–
O=C1c2ccccc2NC(c2c(Cl)cccc2Cl)N1Cc1ccccc1 (centres undefined)	10 µM [falling, partial curve]	–
COc1ccc(C(=O)C(CN2CCOCC2)c2ccccc2)cc1F (centres undefined)	7.08 µM [falling, partial curve]	–
O=C(COC(=O)c1ccccc1C(=O)c1ccccc1)Nc1cccc([N+](=O)[O-])c1	13 µM [falling, partial curve, poor fit]	–
CC(NC(=O)Nc1cccc(Cl)c1)C(c1cccs1)N1CCCC1 (centres undefined)	6.51 µM [rising, single point]	–
Cc1cccc(OCC(=O)Nc2sc3c(c2C#N)CCC3)c1	6.51 µM [rising, partial curve, poor fit]	–
CC1(c2ccc(Cl)cc2)NC(=O)N(CC(=O)N2CCc3ccccc3C2)C1=O (centres undefined)	32.6 µM [falling, single point]	–
CNC(=S)NCCc1ccc(OC)c(OC)c1	3.16 µM [rising, partial curve, poor fit]	–
CC(C)CCNC(=O)C(=O)NCC1OCCCN1S(=O)(=O)c1cccs1 (centres undefined)	10 µM [rising, partial curve]	–
CC(=O)Nc1cccc(NC(=O)c2cccc3cccnc23)c1	1.41 µM [rising, partial curve, poor fit]	–
COc1ccccc1/C=C/C=N/NC(=O)c1cc(-c2ccc(C)o2)[nH]n1	10 µM [falling, partial curve, poor fit]	–

Compound	AC50 [1]	AC50 [2]
O=C(CSc1n[nH]c(-c2cccnc2)n1)Nc1ccc(Cl)cc1	17.8 µM [falling, single point]	35.5 µM [rising, partial curve, poor fit]
COc1cc(-c2nc(C(=O)NC3CCCCC3)cc3c2[nH]c2ccccc23)cc(OC)c1OC	8.91 µM [rising, partial curve]	11.2 µM [falling, partial curve, poor fit]
COc1ccc(NC(=O)CCN2CCCC(C)C2)cc1 (centres undefined)	29.1 µM [rising, partial curve, poor fit]	–
CC(=O)c1c(N2CCOCC2)nc(=S)n(-c2ccccc2)c1C	2.31 µM [rising, partial curve, poor fit]	–
O=C(COc1ccc(C(=O)c2ccc(F)cc2)cc1)NCc1ccc(F)cc1	6.51 µM [rising, single point]	3.26 µM [falling, full curve]
O=C(CCNS(=O)(=O)c1ccc(Br)cc1)N1CCN(c2ccccc2O)CC1	23.1 µM [rising, partial curve, poor fit]	–
COc1ccccc1/C=C/C=N/n1c(-c2ccccc2)n[nH]c1=S	1.12 µM [falling, full curve, poor fit]	–
COCC(=O)Nc1ccc(C(C)C)cc1	9.2 µM [rising, partial curve, poor fit]	–
O=C(Nc1cccc(NC(=O)c2ccccc2[N+](=O)[O-])n1)c1ccccc1[N+](=O)[O-]	25.1 µM [falling, single point]	–
CCOc1cc(Br)c(C=O)cc1OCC	7.94 µM [rising, partial curve]	7.08 µM [falling, full curve]
Cc1nnc(Oc2ccccc2F)c2ccccc12	35.5 µM [rising, single point]	–
Cc1cc(NC(=S)Nc2ccccc2)ccc1Br	11.2 µM [rising, partial curve]	–
COc1ccc(Cl)cc1Nc1nc(-c2sc(NC(=O)c3ccco3)nc2C)cs1	2.82 µM [falling, full curve]	–
Oc1cc(-c2ccc(N3CCCCC3)nc2)cc2cccnc12	32.6 µM [falling, single point] and 5.8 µM [rising, partial curve, poor fit]	–
CC(=O)[C@@H]1[C@@H](C(=O)c2ccc(F)cc2)[C@]2(C(=O)Nc3ccccc32)[C@H]2C=Cc3cc(F)ccc3N12	35.5 µM [falling, single point]	–
COCCCNC(=O)/C(C#N)=C/c1ccc(F)cc1	28.2 µM [falling, single point]	–
COc1ccc(C(=O)COC(=O)c2ccc(-n3cnnn3)cc2)c(OC)c1	23.1 µM [falling, partial curve, poor fit]	–
COc1ccc(CNC(=O)CNC(=O)N2CC(=O)Nc3ccccc32)cc1	28.2 µM [rising, single point]	–
COc1ccc(Cl)cc1C(=O)NNC(=O)c1cccnc1	9.2 µM [falling, partial curve]	–
